# In the supplement of paper PMC8728848:
# The list shows a part of the results.
# B1: HA-00510 (Pseudomonas aeruginosa), Q02V39_PSEAB (protein)
# chain: GVPIVNIATPNGAGLSNNHFRDYNVGANGLILNNATGKTQGTQLGGIILGNPNLKGQAAQVILNQVTGGNRSTLAGYTEVAGQSARVIVANPHGITCQGCGFINTPRATLTTGKPIMDGQRLERFQVDGGDIVVEGAELNVGNLEQFDLITRSAKLNAKLYAKNLNIVTGRNDVQADSLQATPRAADGSEKPQLAIDSSALGGMYAGAIRLVGTEQGVGVKLAGDMAASGGDIRIDASGKLSLAQASSQGDLKIAAQAVELNGKTYAGGSAEIRSAEELVNRQS
# How the values were obtained:
# Assay in all cases: glycan array binding signal (z-score within array); higher = stronger binding
# Conditions in all cases: glycan notation: IUPAC condensed, linker removed
# [1] = target: GalNAc(b1-4)GlcNAc
# How it was run: (§1)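 Glycan array binding is given as a within-array Z-score, which can be read as non-binding when negative. The arrays, 3228 of them, came from the Consortium for Functional Glycomics database and were retained only where the protein sequence was available. Z-scores were averaged across arrays of the same protein sequence at different concentrations or buffers and across linkers.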
# [2] = target: GalNAc(b1-4)GlcNAc(b1-2)Man
# How it was run: as §1
# [3] = target: GalNAc(b1-4)GlcNAc(b1-2)Man(a1-3)[GalNAc(b1-4)GlcNAc(b1-2)Man(a1-6)]Man(b1-4)GlcNAc(b1-4)GlcNAc
# How it was run: as §1
# [4] = target: GalNAc(b1-4)GlcNAc(b1-3)GalNAc(b1-4)GlcNAc
# How it was run: as §1
# [5] = target: GalNAc(b1-4)GlcNAc6S
# How it was run: as §1
# [6] = target: GalNAc(b1-6)GalNAc
# How it was run: as §1
# [7] = target: GalNAc3S(b1-4)GlcNAc
# How it was run: as §1
# [8] = target: GalNAc3S(b1-4)GlcNAc3S
# How it was run: as §1
# [9] = target: GalNAc3S(b1-4)[Fuc(a1-3)]GlcNAc
# How it was run: as §1
# [10] = target: GalNAc4S6S(b1-4)GlcNAc
# How it was run: as §1
# [11] = target: GalNAc6S(b1-4)GlcNAc
# How it was run: as §1
# [12] = target: Glc(a1-4)Glc
# How it was run: as §1
# [13] = target: Glc(a1-4)Glc(a1-4)Glc(a1-4)Glc
# How it was run: as §1
# [14] = target: Glc(a1-6)Glc(a1-6)Glc
# How it was run: as §1
# [15] = target: Glc(a1-6)Glc(a1-6)Glc(a1-6)Glc
# How it was run: as §1
# [16] = target: Glc(b1-4)Glc
# How it was run: as §1
# [17] = target: Glc(b1-6)Glc
# How it was run: as §1
# [18] = target: GlcA(b1-3)Gal
# How it was run: as §1
# [19] = target: GlcA(b1-3)GlcNAc
# How it was run: as §1
# [20] = target: GlcA(b1-6)Gal
# How it was run: as §1
# [21] = target: GlcA3S(b1-3)Gal(b1-4)GlcNAc(b1-2)Man
# How it was run: as §1
# [22] = target: GlcA3S(b1-3)Gal(b1-4)GlcNAc(b1-3)Gal(b1-4)Glc
# How it was run: as §1
# [23] = target: GlcNAc(a1-3)Gal(b1-4)GlcNAc
# How it was run: as §1
# [24] = target: GlcNAc(a1-4)Gal(b1-3)GlcNAc
# How it was run: as §1
# [25] = target: GlcNAc(a1-4)Gal(b1-4)GalNAc
# How it was run: as §1
# [26] = target: GlcNAc(a1-4)Gal(b1-4)GlcNAc
# How it was run: as §1
# [27] = target: GlcNAc(a1-4)Gal(b1-4)GlcNAc(b1-3)Gal(b1-4)Glc
# How it was run: as §1
# [28] = target: GlcNAc(a1-4)Gal(b1-4)GlcNAc(b1-3)Gal(b1-4)GlcNAc
# How it was run: as §1
# [29] = target: GlcNAc(a1-4)Gal(b1-4)GlcNAc(b1-3)Gal(b1-4)GlcNAc(b1-3)Gal(b1-4)GlcNAc
# How it was run: as §1
# [30] = target: GlcNAc(a1-4)Gal(b1-4)GlcNAc(b1-3)Gal(b1-4)[Fuc(a1-3)]GlcNAc(b1-3)Gal(b1-4)[Fuc(a1-3)]GlcNAc
# How it was run: as §1
# [31] = target: GlcNAc(a1-6)Gal(b1-4)GlcNAc
# How it was run: as §1
# [32] = target: GlcNAc(b1-2)Gal(b1-3)GalNAc
# How it was run: as §1
# [33] = target: GlcNAc(b1-2)Man(a1-3)[GlcNAc(b1-2)Man(a1-6)]Man(b1-4)GlcNAc(b1-4)GlcNAc
# How it was run: as §1
# [34] = target: GlcNAc(b1-2)Man(a1-3)[GlcNAc(b1-2)Man(a1-6)]Man(b1-4)GlcNAc(b1-4)[Fuc(a1-6)]GlcNAc
# How it was run: as §1
# [35] = target: GlcNAc(b1-2)Man(a1-3)[GlcNAc(b1-4)][GlcNAc(b1-2)Man(a1-6)]Man(b1-4)GlcNAc(b1-4)GlcNAc
# How it was run: as §1
# [36] = target: GlcNAc(b1-2)Man(a1-3)[GlcNAc(b1-4)][GlcNAc(b1-2)Man(a1-6)]Man(b1-4)GlcNAc(b1-4)[Fuc(a1-6)]GlcNAc
# How it was run: as §1
# [37] = target: GlcNAc(b1-2)[GlcNAc(b1-4)]Man(a1-3)[GlcNAc(b1-2)Man(a1-6)]Man(b1-4)GlcNAc(b1-4)GlcNAc
# How it was run: as §1
binder,measurement,setting,value
B1,glycan array binding signal (z-score),[1],1.48
same,glycan array binding signal (z-score),[2],-1.01
same,glycan array binding signal (z-score),[3],0.732
same,glycan array binding signal (z-score),[4],-0.032
same,glycan array binding signal (z-score),[5],-0.03
same,glycan array binding signal (z-score),[6],0.244
same,glycan array binding signal (z-score),[7],0.203
same,glycan array binding signal (z-score),[8],-0.246
same,glycan array binding signal (z-score),[9],-0.518
same,glycan array binding signal (z-score),[10],-0.251
same,glycan array binding signal (z-score),[11],-0.582
same,glycan array binding signal (z-score),[12],-0.563
same,glycan array binding signal (z-score),[13],0.18
same,glycan array binding signal (z-score),[14],-0.404
same,glycan array binding signal (z-score),[15],0.119
same,glycan array binding signal (z-score),[16],-0.009
same,glycan array binding signal (z-score),[17],-1.39
same,glycan array binding signal (z-score),[18],0.104
same,glycan array binding signal (z-score),[19],0.688
same,glycan array binding signal (z-score),[20],0.203
same,glycan array binding signal (z-score),[21],0.371
same,glycan array binding signal (z-score),[22],-0.72
same,glycan array binding signal (z-score),[23],-0.693
same,glycan array binding signal (z-score),[24],0.762
same,glycan array binding signal (z-score),[25],-0.228
same,glycan array binding signal (z-score),[26],-0.006
same,glycan array binding signal (z-score),[27],-0.558
same,glycan array binding signal (z-score),[28],-0.003
same,glycan array binding signal (z-score),[29],0.791
same,glycan array binding signal (z-score),[30],0.682
same,glycan array binding signal (z-score),[31],-0.411
same,glycan array binding signal (z-score),[32],-0.049
same,glycan array binding signal (z-score),[33],-0.458
same,glycan array binding signal (z-score),[34],0.819
same,glycan array binding signal (z-score),[35],0.016
same,glycan array binding signal (z-score),[36],-0.954
same,glycan array binding signal (z-score),[37],0.825

# Random excerpt: 3 records from the list, in no set order.
binder,measurement,setting,value
B1,glycan array binding signal (z-score),[1],1.48
same,glycan array binding signal (z-score),[7],0.203
same,glycan array binding signal (z-score),[12],-0.563
